Measurements: PubChem BioAssay (NCI)
Shown are results outside the selection of hits, which stands elsewhere. Active and inactive are the calls of the source. Rule as the data show it: active = growth inhibition above about 70%; inactive = the rest.

How the values were obtained:
[1] = NCI Yeast Anticancer Drug Screen. Data for the rad52 strain (AID 147);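 also: 0% = growth of vehicle-treated control cultures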; details: S. cerevisiae rad52 mutant growth inhibition, stronger effect = higher value
Procedure: Growth inhibition of yeast strains with defined genetic alterations is measured as a screen for potential anti-cancer activity. Selected strains with alterations in DNA damage repair or cell cycle control were exposed to compounds and growth inhibition was measured relative to vehicle treated controls. The strain used in this assay is rad52

[2] = NCI Yeast Anticancer Drug Screen. Data for the mgt1 strain (AID 153); details: S. cerevisiae mgt1 mutant growth inhibition, stronger effect = higher value
Procedure: Growth inhibition of yeast strains with defined genetic alterations is measured as a screen for potential anti-cancer activity. Selected strains with alterations in DNA damage repair or cell cycle control were exposed to compounds and growth inhibition was measured relative to vehicle treated controls. The strain used in this assay is mgt1

[3] = NCI Yeast Anticancer Drug Screen. Data for the CLN2oe strain (AID 163);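 also: 0% = growth of vehicle-only control cultures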; details: S. cerevisiae CLN2oe strain, stronger effect = higher value
Procedure: Growth inhibition of yeast strains with defined genetic alterations is measured as a screen for potential anti-cancer activity. Selected strains with alterations in DNA damage repair or cell cycle control were exposed to compounds and growth inhibition was measured relative to vehicle treated controls. The strain used in this assay is CLN2oe

Measured: growth inhibition

CCOC(=O)NC1CCc2cc(OC)c(OC)c(OC)c2-c2ccc(OC)c(=O)cc21 (stereo not given)
inactive: [1]; at 1.2 µM 0% | [1]; at 3.7 µM 3% | [1]; at 11.0 µM 8% | [1]; at 33.0 µM 4% | [1]; at 100.0 µM 4% | [2]; at 1.2 µM 0% | [2]; at 3.7 µM 0% | [2]; at 11.0 µM -1% | [2]; at 33.0 µM -2% | [2]; at 100.0 µM -3% | [3]; at 1.2 µM -4% | [3]; at 3.7 µM -6% | [3]; at 11.0 µM -10% | [3]; at 33.0 µM -8% | [3]; at 100.0 µM -9%
